Some of these results come from one statement about several compounds together.
Experiments:
Type in all cases: in vivo
Spodoptera littoralis = Spodoptera littoralis (Egyptian cotton leafworm) cotton leaf disc spray test; conditions: 200 ppm sprayed on cotton leaf discs, 5 L1 larvae; mortality, feeding behaviour, growth regulation 3 DAT
Plutella xylostella = Plutella xylostella (diamond back moth) larvae test on artificial diet; conditions: 200 ppm (concentration in well 18 ppm), L2 larvae, larval mortality, growth regulation after 6 days
Diabrotica balteata = Diabrotica balteata (corn root worm) larvae test on artificial diet; conditions: 200 ppm (concentration in well 18 ppm), L2 larvae, larval mortality, growth regulation after 5 days
Heliothis virescens = Heliothis virescens (tobacco budworm) egg test on artificial diet; conditions: 200 ppm (concentration in well 18 ppm), eggs 0-24 h old on artificial diet; egg mortality, larval mortality, growth regulation after 4 days

Compound | control of Spodoptera littoralis (Spodoptera littoralis) | control of Plutella xylostella (Plutella xylostella) | control of Diabrotica balteata (Diabrotica balteata) | control of Heliothis virescens (Heliothis virescens)
CSc1cc(C(F)(F)F)ccc1C(=O)Nc1cc(C(=O)Nc2c(C)cc(C(F)(C(F)(F)F)C(F)(F)F)cc2C)ccc1C#N [A7] | at least 80% | at least 80% |  | 
Cc1cc(C(F)(C(F)(F)F)C(F)(F)F)cc(C)c1NC(=O)c1ccc(C#N)c(NC(=O)c2ccc(N(C)C)cc2)c1 [A8] |  | at least 80% | at least 80% | 
Cc1cc(C(F)(C(F)(F)F)C(F)(F)F)cc(C)c1NC(=O)c1ccc(C#N)c(NC(=O)c2cc(Cl)ccc2F)c1 [A9] | at least 80% | at least 80% | at least 80% | at least 80%
Cc1cc(C(F)(C(F)(F)F)C(F)(F)F)cc(C)c1NC(=O)c1ccc(C#N)c(NC(=O)c2ccco2)c1 [A10] | at least 80% | at least 80% | at least 80% | at least 80%
Cc1cc(C(F)(C(F)(F)F)C(F)(F)F)cc(C)c1NC(=O)c1ccc(C#N)c(NC(=O)c2ccc(F)c(C(F)(F)F)c2)c1 [A12] | at least 80% | at least 80% | at least 80% | 
Cc1cc(C(F)(C(F)(F)F)C(F)(F)F)cc(C)c1NC(=O)c1ccc(C#N)c(NC(=O)c2cc(C(F)(F)F)ccc2F)c1 [A20] | at least 80% | at least 80% | at least 80% | at least 80%
CCc1cc(C(F)(C(F)(F)F)C(F)(F)F)cc(CC)c1NC(=O)c1ccc(C#N)c(NC(=O)c2cc(Cl)ccc2F)c1 [A28] | at least 80% |  | at least 80% | 
CCc1cc(C(F)(C(F)(F)F)C(F)(F)F)cc(CC)c1NC(=O)c1ccc(C#N)c(NC(=O)c2ccco2)c1 [A29] | at least 80% | at least 80% | at least 80% | 
CCc1cc(C(F)(C(F)(F)F)C(F)(F)F)cc(CC)c1NC(=O)c1ccc(C#N)c(NC(=O)c2ccc(OC(F)(F)F)cc2)c1 [A30] | at least 80% | at least 80% | at least 80% | 
CCc1cc(C(F)(C(F)(F)F)C(F)(F)F)cc(CC)c1NC(=O)c1ccc(C#N)c(NC(=O)c2ccc(F)c(C(F)(F)F)c2)c1 [A31] |  | at least 80% | at least 80% | 
CCc1cc(C(F)(C(F)(F)F)C(F)(F)F)cc(CC)c1NC(=O)c1ccc(C#N)c(NC(=O)c2snnc2C)c1 [A36] | at least 80% | at least 80% | at least 80% | at least 80%
CCc1cc(C(F)(C(F)(F)F)C(F)(F)F)cc(CC)c1NC(=O)c1ccc(C#N)c(NC(=O)c2cccc(F)c2F)c1 [A37] | at least 80% | at least 80% | at least 80% | at least 80%
CCc1cc(C(F)(C(F)(F)F)C(F)(F)C(F)(F)F)cc(CC)c1NC(=O)c1ccc(C#N)c(NC(=O)c2ccccc2OC(F)(F)F)c1 (stereo not shown) [A49] | at least 80% |  |  | at least 80%
CCc1cc(C(F)(C(F)(F)F)C(F)(F)C(F)(F)F)cc(CC)c1NC(=O)c1ccc(C#N)c(NC(=O)c2ccccc2OC)c1 (stereo not shown) [A50] |  | at least 80% |  | 
CCc1cc(C(F)(C(F)(F)F)C(F)(F)C(F)(F)F)cc(CC)c1NC(=O)c1ccc(C#N)c(NC(=O)c2cccc(F)c2F)c1 (stereo not shown) [A56] | at least 80% | at least 80% | at least 80% | at least 80%
CCc1cc(C(F)(C(F)(F)F)C(F)(F)C(F)(F)F)cc(C)c1NC(=O)c1ccc(C#N)c(NC(=O)c2ccccc2OC(F)(F)F)c1 (stereo not shown) [A69] | at least 80% | at least 80% | at least 80% | at least 80%
CCc1cc(C(F)(C(F)(F)F)C(F)(F)C(F)(F)F)cc(C)c1NC(=O)c1ccc(C#N)c(NC(=O)c2cc(C(F)(F)F)ccc2F)c1 (stereo not shown) [A78] | at least 80% | at least 80% | at least 80% | at least 80%
Cc1cc(C(F)(C(F)(F)F)C(F)(F)F)cc(Br)c1NC(=O)c1ccc(C#N)c(NC(=O)c2cc(C(F)(F)F)ccc2F)c1 [A80] |  |  | at least 80% | at least 80%
Cc1cc(C(F)(C(F)(F)F)C(F)(F)F)cc(Br)c1NC(=O)c1ccc(C#N)c(NC(=O)c2cc(Cl)ccc2F)c1 [A86] | at least 80% |  | at least 80% | at least 80%
Cc1cc(C(F)(C(F)(F)F)C(F)(F)F)cc(Br)c1NC(=O)c1ccc(C#N)c(NC(=O)c2ccc(F)c(C(F)(F)F)c2)c1 [A90] | at least 80% | at least 80% | at least 80% | at least 80%

Compound | control of Spodoptera littoralis (Spodoptera littoralis) | control of Plutella xylostella (Plutella xylostella) | control of Diabrotica balteata (Diabrotica balteata) | control of Heliothis virescens (Heliothis virescens)
Cc1cc(C(F)(C(F)(F)F)C(F)(F)F)cc(Br)c1NC(=O)c1ccc(C#N)c(NC(=O)c2ccccc2OC(F)(F)F)c1 [A92] |  |  | at least 80% | at least 80%
COC(=O)c1ccc(C(=O)Nc2cc(C(=O)Nc3c(C)cc(C(F)(C(F)(F)F)C(F)(F)F)cc3Br)ccc2C#N)cc1 [A100] |  |  |  | at least 80%
Cc1cc(C(F)(C(F)(F)F)C(F)(F)C(F)(F)F)cc(Br)c1NC(=O)c1ccc(C#N)c(NC(=O)c2cc(Cl)ccc2F)c1 (stereo not shown) [A106] | at least 80% | at least 80% | at least 80% | at least 80%
COc1ccccc1C(=O)Nc1cc(C(=O)Nc2c(C)cc(C(F)(C(F)(F)F)C(F)(F)C(F)(F)F)cc2Br)ccc1C#N (stereo not shown) [A113] |  |  |  | at least 80%
Cc1cc(C(F)(C(F)(F)F)C(F)(F)C(F)(F)F)cc(Br)c1NC(=O)c1ccc(C#N)c(NC(=O)c2cc(C(F)(F)F)ccc2F)c1 (stereo not shown) [A120] | at least 80% |  | at least 80% | at least 80%
CCc1cc(C(F)(C(F)(F)F)C(F)(F)F)cc(Br)c1NC(=O)c1ccc(C#N)c(NC(=O)c2ccc(OC(F)(F)F)cc2)c1 [A129] |  | at least 80% | at least 80% | at least 80%
CCc1cc(C(F)(C(F)(F)F)C(F)(F)F)cc(Br)c1NC(=O)c1ccc(C#N)c(NC(=O)c2ccc(C(F)(F)F)cc2)c1 [A131] |  | at least 80% | at least 80% | at least 80%
CCc1cc(C(F)(C(F)(F)F)C(F)(F)F)cc(Br)c1NC(=O)c1ccc(C#N)c(NC(=O)c2ccccc2OC(F)(F)F)c1 [A132] |  | at least 80% | at least 80% | at least 80%
CCc1cc(C(F)(C(F)(F)F)C(F)(F)F)cc(Br)c1NC(=O)c1ccc(C#N)c(NC(=O)c2cc(C(F)(F)F)ccc2F)c1 [A141] |  | at least 80% | at least 80% | at least 80%
CCc1cc(C(F)(C(F)(F)F)C(F)(F)C(F)(F)F)cc(Br)c1NC(=O)c1ccc(C#N)c(NC(=O)c2cc(C(F)(F)F)ccc2F)c1 (stereo not shown) [A161] |  | at least 80% |  | at least 80%
COCc1cc(C(F)(C(F)(F)F)C(F)(F)F)cc(C)c1NC(=O)c1ccc(C#N)c(NC(=O)c2ccco2)c1 [A170] |  |  |  | at least 80%
COCc1cc(C(F)(C(F)(F)F)C(F)(F)F)cc(C)c1NC(=O)c1ccc(C#N)c(NC(=O)c2ccc(C(F)(F)F)cc2)c1 [A172] |  | at least 80% | at least 80% | at least 80%
COCc1cc(C(F)(C(F)(F)F)C(F)(F)F)cc(C)c1NC(=O)c1ccc(C#N)c(NC(=O)c2ccccc2OC(F)(F)F)c1 [A173] |  |  |  | at least 80%
Cc1cc(C(F)(C(F)(F)F)C(F)(F)F)cc(C)c1NC(=O)c1ccc(C#N)c(NC(=O)c2cc(F)c(Cl)nc2Cl)c1 [A181] |  |  | at least 80% | 
Cc1cc(C(F)(C(F)(F)F)C(F)(F)F)cc(C)c1NC(=O)c1ccc(C#N)c(NC(=O)c2cccnc2F)c1 [A184] | at least 80% |  |  | at least 80%
CCc1cc(C(F)(C(F)(F)F)C(F)(F)C(F)(F)F)cc(C)c1NC(=O)c1ccc(C#N)c(NC(=O)c2cc(Cl)cc(Cl)c2)c1 (stereo not shown) [A193] |  | at least 80% | at least 80% | at least 80%
Cc1cc(C(F)(C(F)(F)F)C(F)(F)F)cc(C)c1NC(=O)c1ccc(C#N)c(NC(=O)c2cncc(Br)c2)c1 [A202] |  | at least 80% | at least 80% | at least 80%
Cc1cc(C(F)(C(F)(F)F)C(F)(F)F)cc(C)c1NC(=O)c1ccc(C#N)c(NC(=O)c2cnc(Cl)c(Cl)c2)c1 [A203] |  | at least 80% |  | at least 80%
Cc1cc(C(F)(C(F)(F)F)C(F)(F)F)cc(C)c1NC(=O)c1ccc(C#N)c(NC(=O)c2cc(I)cc(I)c2I)c1 [A204] |  |  |  | at least 80%

Reference: US8389766B2, “Insecticidal compounds” (Syngenta Crop Protection LLC, priority 2006, dated 2013)
